{"source": "paper doi:10.1101/2021.07.21.453268", "about": "(bioRxiv, 2021)", "binders": {"B1": {"name": "6His-3FLAG-Cdc14 (enzyme, UniProt Q00684 1-551)", "chain": "MRRSVYLDNTIEFLRGRVYLGAYDYTPEDTDELVFFTVEDAIFYNSFHLDFGPMNIGHLYRFAVIFHEILNDPENANKAVVFYSSASTRQRANAACMLCCYMILVQAWTPHQVLQPLAQVDPPFMPFRDAGYSNADFEITIQDVVYGVWRAKEKGLIDLHSFNLESYEKYEHVEFGDFNVLTPDFIAFASPQEDHPKGYLATKSSHLNQPFKSVLNFFANNNVQLVVRLNSHLYNKKHFEDIGIQHLDLIFEDGTCPDLSIVKNFVGAAETIIKRGGKIAVHCKAGLGRTGCLIGAHLIYTYGFTANECIGFLRFIRPGMVVGPQQHWLYLHQNDFREWKYTTRISLKPSEAIGGLYPLISLEEYRLQKKKLKDDKRVAQNNIEGELRDLTMTPPSNGHGALSARNSSQPSTANNGSNSFKSSAVPQTSPGQPRKGQNGSNTIEDINNNRNPTSHANRKVVIESNNSDDESMQDTNGTSNHYPKVSRKKNDISSASSSRMEDNEPSATNINNAADDTILRQLLPKNRRVTSGRRTTSAAGGIRKISGSIKK"}}, "molecular_target": "T1, 3HA-Atg13 (S. cerevisiae, UniProt Q06628 1-738, hyper-phosphorylated (sites not given))", "T1 sequence (looked up)": "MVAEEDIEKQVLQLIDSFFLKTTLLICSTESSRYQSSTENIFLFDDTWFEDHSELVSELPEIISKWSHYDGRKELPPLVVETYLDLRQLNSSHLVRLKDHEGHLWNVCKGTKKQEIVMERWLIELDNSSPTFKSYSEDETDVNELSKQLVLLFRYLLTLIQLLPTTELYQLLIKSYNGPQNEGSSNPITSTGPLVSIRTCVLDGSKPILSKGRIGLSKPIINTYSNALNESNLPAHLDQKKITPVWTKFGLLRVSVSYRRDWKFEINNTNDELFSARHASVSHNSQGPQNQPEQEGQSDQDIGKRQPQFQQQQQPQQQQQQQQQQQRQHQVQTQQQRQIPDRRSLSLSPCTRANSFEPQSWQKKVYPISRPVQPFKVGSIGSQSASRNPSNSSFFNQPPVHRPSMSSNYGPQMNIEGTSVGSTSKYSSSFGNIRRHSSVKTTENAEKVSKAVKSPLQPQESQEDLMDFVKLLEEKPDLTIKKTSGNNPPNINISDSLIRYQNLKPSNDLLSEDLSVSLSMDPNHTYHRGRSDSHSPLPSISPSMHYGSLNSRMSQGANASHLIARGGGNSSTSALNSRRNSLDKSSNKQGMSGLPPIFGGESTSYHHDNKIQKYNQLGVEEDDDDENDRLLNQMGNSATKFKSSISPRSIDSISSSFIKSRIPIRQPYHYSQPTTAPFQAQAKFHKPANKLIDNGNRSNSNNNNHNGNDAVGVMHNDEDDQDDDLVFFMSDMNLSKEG", "experiment": "pull-down", "note": "These are yes or no findings as the source states them, for the method shown. Tags and fused reporters may be left off the sequences shown."}
{"binder": "B1", "values": [{"measurement": "binding", "value": "no binding (tested: 50 ug/ml)"}]}
